No constants are given. Whether binding was seen depends on the method and setting. In cells and extracts the contact can be indirect. Some results given as binding are weak or reduced against the parent protein; the word gives no strength. Tags and fused reporters may be left off the sequences shown.
Target: T1, Flag-tagged TRAF7 (HEK293T) (UniProt Q6Q0C0)
T1 sequence: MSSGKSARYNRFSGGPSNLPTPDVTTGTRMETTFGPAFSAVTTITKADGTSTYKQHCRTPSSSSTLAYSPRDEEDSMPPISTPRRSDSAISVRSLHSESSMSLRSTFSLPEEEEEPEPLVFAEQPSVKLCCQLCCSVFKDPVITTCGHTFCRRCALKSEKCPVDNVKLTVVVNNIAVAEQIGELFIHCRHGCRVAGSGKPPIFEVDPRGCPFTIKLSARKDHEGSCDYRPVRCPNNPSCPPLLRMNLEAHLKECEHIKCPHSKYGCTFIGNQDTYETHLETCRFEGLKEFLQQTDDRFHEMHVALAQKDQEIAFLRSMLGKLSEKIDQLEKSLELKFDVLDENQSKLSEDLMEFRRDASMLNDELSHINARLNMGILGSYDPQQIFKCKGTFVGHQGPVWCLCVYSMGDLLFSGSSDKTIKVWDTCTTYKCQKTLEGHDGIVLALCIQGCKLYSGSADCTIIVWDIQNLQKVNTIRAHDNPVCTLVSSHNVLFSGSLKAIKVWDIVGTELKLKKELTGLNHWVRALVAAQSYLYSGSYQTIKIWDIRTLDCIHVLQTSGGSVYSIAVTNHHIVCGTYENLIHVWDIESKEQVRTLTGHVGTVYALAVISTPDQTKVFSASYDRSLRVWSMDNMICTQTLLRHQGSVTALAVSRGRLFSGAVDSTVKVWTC
Assay: co-IP; 'exogenous co-IP': HEK293T cells co-transfected with Flag/Ha-tagged TRAF7 and P53; same steps as the endogenous co-IP (antibody and Protein A/G magnetic beads 3 h, high salt and low salt washes)

Q: Which binding does the source give for “Ha-tagged P53 (from UniProt P04637 1-393)” here?
A: The binding was “binds”.

— publication PMC8590685
